Experimental data taken from the supplement of paper PMC12819154, “High-throughput peptide-centric local stability assay extends protein–ligand identification to membrane proteins, tissues and bacteria” (Nature Structural & Molecular Biology, 2025).
The other results are listed elsewhere or left out. Most values lie at the level of the controls, where differences are scatter.

Chains of the proteins cited; added tags and fusions are not shown. Lines headed by an entry give the natural chain unless they say otherwise; changes in a name come on top.
UniProt Q9QXS6: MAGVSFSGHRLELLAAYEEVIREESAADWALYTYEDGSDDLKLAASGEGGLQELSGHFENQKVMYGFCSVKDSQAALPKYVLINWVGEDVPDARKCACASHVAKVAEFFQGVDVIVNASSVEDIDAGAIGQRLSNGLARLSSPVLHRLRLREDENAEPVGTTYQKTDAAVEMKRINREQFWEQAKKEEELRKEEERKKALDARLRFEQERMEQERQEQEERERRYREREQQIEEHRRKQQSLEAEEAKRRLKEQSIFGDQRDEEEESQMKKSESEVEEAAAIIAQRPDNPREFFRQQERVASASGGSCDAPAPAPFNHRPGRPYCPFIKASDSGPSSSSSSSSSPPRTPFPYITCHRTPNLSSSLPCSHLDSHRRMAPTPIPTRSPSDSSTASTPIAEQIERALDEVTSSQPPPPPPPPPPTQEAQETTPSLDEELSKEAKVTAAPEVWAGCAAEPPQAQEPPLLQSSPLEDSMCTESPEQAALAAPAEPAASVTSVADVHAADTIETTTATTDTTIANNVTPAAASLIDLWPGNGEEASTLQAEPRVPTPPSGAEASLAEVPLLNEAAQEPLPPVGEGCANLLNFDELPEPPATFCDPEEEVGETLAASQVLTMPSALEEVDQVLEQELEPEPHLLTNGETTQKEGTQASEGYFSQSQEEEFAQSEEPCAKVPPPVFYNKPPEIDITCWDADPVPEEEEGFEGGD
UniProt Q9R1R2: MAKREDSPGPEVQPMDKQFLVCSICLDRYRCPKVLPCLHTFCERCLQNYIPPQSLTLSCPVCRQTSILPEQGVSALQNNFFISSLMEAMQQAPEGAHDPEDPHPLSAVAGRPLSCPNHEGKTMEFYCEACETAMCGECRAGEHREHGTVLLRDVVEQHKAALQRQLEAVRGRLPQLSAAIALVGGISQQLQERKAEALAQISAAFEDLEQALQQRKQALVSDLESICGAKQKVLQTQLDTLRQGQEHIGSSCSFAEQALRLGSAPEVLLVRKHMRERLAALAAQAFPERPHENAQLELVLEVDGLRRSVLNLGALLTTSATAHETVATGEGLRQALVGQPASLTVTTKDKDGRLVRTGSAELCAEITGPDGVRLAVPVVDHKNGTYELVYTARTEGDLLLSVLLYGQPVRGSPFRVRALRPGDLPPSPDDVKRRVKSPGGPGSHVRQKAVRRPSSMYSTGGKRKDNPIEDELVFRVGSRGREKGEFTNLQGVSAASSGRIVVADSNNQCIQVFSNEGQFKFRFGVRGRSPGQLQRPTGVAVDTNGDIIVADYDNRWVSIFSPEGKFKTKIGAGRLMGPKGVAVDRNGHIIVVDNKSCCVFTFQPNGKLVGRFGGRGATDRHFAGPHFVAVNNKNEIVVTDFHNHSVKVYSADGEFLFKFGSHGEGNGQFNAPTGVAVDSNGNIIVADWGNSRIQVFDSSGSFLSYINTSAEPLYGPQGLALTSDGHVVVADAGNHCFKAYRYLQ
UniProt Q9QYI4: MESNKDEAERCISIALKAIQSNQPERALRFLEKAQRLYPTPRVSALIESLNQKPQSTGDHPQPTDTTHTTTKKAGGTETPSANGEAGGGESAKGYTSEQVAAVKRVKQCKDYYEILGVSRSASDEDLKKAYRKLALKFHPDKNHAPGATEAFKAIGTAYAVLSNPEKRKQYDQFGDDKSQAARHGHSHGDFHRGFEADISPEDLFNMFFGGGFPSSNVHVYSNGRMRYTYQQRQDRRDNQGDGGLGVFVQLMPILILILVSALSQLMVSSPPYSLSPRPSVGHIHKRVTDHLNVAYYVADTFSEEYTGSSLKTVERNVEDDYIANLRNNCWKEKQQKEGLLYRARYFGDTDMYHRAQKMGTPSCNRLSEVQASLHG
UniProt Q9QZU9: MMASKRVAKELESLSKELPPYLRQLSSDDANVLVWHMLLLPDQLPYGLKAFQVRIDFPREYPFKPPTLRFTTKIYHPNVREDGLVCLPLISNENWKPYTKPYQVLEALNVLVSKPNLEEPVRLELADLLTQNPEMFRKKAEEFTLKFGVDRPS
UniProt Q9QYY8: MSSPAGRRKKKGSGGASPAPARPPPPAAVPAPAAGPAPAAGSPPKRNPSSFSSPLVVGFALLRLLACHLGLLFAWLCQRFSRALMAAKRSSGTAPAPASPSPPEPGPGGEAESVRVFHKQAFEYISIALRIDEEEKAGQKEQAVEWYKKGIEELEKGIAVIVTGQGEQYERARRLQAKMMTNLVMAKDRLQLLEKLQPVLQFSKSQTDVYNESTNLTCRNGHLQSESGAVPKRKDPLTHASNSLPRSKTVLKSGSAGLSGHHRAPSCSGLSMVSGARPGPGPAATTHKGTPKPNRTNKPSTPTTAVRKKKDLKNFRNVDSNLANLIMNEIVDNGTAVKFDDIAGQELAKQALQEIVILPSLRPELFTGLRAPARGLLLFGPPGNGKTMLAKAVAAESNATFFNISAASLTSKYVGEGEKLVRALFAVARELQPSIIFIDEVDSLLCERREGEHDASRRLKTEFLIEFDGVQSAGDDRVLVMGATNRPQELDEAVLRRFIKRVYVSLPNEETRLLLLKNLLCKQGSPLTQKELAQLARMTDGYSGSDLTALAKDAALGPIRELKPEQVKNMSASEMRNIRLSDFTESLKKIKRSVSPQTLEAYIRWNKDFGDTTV
UniProt Q9WV30: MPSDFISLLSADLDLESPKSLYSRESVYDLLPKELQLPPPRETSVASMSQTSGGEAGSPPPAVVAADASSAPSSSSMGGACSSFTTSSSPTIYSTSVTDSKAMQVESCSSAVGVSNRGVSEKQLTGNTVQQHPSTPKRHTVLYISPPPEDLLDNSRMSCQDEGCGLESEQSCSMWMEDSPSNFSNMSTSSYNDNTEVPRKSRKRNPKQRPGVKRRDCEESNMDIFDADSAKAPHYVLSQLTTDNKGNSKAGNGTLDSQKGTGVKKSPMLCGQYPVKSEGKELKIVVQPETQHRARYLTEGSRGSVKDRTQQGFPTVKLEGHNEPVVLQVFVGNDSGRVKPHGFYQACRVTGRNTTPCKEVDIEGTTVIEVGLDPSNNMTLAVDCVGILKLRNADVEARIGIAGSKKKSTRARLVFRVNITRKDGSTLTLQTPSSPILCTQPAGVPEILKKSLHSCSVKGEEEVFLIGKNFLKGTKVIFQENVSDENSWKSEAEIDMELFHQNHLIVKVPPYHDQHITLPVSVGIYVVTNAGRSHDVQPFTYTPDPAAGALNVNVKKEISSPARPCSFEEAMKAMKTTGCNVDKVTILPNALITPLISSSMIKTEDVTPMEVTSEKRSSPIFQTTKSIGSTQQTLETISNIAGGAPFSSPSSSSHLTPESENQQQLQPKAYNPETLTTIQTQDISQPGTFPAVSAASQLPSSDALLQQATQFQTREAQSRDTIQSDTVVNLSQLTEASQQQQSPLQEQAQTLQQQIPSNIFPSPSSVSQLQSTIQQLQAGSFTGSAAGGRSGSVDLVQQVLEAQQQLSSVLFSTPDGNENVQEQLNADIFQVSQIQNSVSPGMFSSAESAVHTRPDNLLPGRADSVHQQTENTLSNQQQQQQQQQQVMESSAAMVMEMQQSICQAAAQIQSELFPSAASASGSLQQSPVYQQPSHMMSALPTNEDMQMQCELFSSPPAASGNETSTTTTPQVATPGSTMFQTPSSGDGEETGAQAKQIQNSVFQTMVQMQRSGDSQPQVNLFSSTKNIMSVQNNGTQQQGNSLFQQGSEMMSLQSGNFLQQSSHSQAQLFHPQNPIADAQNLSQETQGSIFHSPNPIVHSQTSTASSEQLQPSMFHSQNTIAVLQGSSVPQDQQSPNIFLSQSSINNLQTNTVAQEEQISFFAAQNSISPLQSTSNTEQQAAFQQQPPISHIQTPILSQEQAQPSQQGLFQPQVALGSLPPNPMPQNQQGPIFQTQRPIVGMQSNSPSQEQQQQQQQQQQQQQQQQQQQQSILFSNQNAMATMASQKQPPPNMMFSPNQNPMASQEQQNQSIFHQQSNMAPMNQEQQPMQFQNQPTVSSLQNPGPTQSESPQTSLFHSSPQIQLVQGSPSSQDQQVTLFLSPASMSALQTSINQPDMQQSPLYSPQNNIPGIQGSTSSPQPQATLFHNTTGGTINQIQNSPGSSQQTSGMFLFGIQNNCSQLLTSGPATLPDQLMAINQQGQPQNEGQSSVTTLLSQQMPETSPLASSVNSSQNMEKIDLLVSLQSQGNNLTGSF
UniProt Q9R0H5: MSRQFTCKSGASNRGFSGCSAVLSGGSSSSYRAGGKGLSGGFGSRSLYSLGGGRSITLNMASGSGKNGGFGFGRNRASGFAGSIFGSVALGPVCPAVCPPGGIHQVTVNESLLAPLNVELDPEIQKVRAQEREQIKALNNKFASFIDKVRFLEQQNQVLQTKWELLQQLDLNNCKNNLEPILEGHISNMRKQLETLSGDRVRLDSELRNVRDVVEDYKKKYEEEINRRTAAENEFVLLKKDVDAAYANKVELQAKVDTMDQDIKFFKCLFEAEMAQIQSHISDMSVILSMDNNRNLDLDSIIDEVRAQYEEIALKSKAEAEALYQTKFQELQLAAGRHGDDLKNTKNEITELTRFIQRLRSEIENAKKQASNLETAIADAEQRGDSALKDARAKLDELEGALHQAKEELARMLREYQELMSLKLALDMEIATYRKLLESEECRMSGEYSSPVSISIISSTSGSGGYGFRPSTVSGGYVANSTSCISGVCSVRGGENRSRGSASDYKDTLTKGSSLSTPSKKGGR
UniProt Q9QZE5: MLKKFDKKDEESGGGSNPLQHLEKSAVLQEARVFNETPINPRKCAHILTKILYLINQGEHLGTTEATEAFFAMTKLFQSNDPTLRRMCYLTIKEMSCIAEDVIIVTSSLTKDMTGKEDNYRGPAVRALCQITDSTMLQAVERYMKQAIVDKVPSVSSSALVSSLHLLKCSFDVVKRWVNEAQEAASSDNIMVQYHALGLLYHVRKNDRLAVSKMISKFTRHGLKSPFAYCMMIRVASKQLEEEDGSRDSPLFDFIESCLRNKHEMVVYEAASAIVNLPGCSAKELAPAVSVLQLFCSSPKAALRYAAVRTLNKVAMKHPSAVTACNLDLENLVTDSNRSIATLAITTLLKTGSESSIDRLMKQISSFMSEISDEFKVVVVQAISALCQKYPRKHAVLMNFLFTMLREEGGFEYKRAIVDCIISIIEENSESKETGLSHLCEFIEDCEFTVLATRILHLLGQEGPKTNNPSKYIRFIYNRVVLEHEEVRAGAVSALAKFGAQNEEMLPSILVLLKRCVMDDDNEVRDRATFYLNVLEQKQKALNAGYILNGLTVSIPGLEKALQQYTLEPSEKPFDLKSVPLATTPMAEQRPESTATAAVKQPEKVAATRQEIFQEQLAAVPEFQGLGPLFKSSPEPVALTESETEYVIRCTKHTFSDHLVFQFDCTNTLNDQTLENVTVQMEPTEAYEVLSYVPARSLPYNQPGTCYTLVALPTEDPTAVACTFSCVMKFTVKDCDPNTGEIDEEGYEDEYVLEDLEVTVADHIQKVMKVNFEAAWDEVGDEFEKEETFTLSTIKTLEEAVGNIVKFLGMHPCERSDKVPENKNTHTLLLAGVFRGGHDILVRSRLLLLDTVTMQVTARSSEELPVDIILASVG
UniProt Q9R0A0, whole entry: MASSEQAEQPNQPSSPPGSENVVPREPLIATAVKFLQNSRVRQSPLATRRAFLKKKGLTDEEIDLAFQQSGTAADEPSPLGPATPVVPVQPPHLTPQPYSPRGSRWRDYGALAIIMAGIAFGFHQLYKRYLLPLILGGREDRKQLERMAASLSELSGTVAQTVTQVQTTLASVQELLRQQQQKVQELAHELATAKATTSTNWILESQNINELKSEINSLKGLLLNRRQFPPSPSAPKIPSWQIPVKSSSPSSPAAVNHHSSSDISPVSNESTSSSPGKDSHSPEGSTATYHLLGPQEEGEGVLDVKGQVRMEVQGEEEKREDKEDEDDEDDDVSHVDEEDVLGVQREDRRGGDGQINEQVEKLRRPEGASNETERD
UniProt Q9WU81: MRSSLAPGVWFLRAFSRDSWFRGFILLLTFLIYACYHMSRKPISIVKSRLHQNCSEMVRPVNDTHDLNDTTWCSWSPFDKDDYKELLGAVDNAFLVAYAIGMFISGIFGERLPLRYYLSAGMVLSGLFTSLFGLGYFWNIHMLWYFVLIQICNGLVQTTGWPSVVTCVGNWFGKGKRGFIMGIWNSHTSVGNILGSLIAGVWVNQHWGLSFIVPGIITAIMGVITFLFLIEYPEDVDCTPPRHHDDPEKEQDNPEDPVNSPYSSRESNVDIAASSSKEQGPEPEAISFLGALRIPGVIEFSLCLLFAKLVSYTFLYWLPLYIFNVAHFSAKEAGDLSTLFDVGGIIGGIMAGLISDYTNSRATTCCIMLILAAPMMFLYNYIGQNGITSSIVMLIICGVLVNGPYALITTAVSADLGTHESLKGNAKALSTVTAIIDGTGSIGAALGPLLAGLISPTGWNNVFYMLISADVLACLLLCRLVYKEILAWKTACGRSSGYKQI
UniProt Q9WUB4, whole entry: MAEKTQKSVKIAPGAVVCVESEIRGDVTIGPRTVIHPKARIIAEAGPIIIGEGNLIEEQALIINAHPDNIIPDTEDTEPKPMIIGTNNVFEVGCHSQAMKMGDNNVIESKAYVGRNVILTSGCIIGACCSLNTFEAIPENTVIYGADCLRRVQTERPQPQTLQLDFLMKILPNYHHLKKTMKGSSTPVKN

compound: CN[C@@H]1C[C@H]2O[C@@](C)([C@@H]1OC)n1c3ccccc3c3c4c(c5c6ccccc6n2c5c31)C(=O)NC4 [staurosporine]; experiment: log2 fold change of tryptic peptide abundance, ligand vs vehicle (limited proteolysis) (log2 ratio); higher = more trypsin-susceptible (destabilized); conditions: ligand concentration: 20 uM; sample: mouse liver crude lysate; replicate design: treated separately

Target	log2 fold change
UniProt Q9QXS6 (peptide sequence: LKEQSIFGDQRDEEEESQMK, peptide start residue: 251)	-0.515
UniProt Q9R1R2 (peptide sequence: LGSAPEVLLVR, peptide start residue: 261)	-0.128
UniProt Q9QYI4 (peptide sequence: FHPDKNHAPGATEAFK, peptide start residue: 138)	0.187
UniProt Q9QZU9 (peptide sequence: IYHPNVR, peptide start residue: 74)	-0.254
UniProt Q9QXM0 (peptide sequence: SGHIQTALYGK, peptide start residue: 75)	-0.0221
UniProt Q9QZX7 (peptide sequence: LKGELTPNLHPPETIADGVK, peptide start residue: 222)	0.202
UniProt Q9QXS1 (peptide sequence: SKVIYQSLEGAVQAGQLK, peptide start residue: 487)	-0.765
UniProt Q9R0I7 (peptide sequence: SGGLLADPPKGSFLEGPR, peptide start residue: 689)	-0.266
UniProt Q9WUM5 (peptide sequence: MGHAGAIIAGGKGGAKEK, peptide start residue: 297)	0.268
UniProt Q9QXD6 (peptide sequence: STDEPSEKDALQPGR, peptide start residue: 144)	0.32
UniProt Q9QYY8 (peptide sequence: RKDPLTHASNSLPR, peptide start residue: 233)	0.428
UniProt Q9QZS3 (peptide sequence: EKECGVTATFDASR, peptide start residue: 173)	-0.158
UniProt Q9WTJ8 (peptide sequence: FSAHYDAVEAELK, peptide start residue: 49)	-0.215
UniProt Q9WV30 (peptide sequence: EISSPARPCSFEEAMK, peptide start residue: 557)	0.268
UniProt Q9QZ49 (peptide sequence: YIENVLKPQQEMK, peptide start residue: 98)	-0.144
UniProt Q9R0H5 (peptide sequence: TAAENEFVLLKK, peptide start residue: 182)	-0.773
UniProt Q9QZE5 (peptide sequence: TLEEAVGNIVK, peptide start residue: 796)	-0.539
UniProt Q9QYE6 (peptide sequence: TEALEALR, peptide start residue: 317)	-0.132
UniProt Q9WTJ4 (peptide sequence: HVLVHTGEKPFPCLECGK, peptide start residue: 436)	-0.35
UniProt Q9R020 (peptide sequence: VSDGDWICPDKKCGNVNFAR, peptide start residue: 8)	-0.35
UniProt Q9R0A0 (peptide sequence: VQELAHELATAK, peptide start residue: 184)	0.127
UniProt Q9R1N9 (peptide sequence: EYPGGMLAALR, peptide start residue: 227)	0.0496
UniProt Q9WTQ5 (peptide sequence: ESVEKLPLQCK, peptide start residue: 1605)	0.944
UniProt Q9WU56 (peptide sequence: FGGDGLHEPLDWTQEEGKVTAFK, peptide start residue: 343)	0.804
UniProt Q9WUM3 (peptide sequence: NVLSDSRPASYSR, peptide start residue: 410)	-0.0704
UniProt Q9WU81 (peptide sequence: ESNVDIAASSSK, peptide start residue: 266)	-0.232
UniProt Q9WU84 (peptide sequence: LACGIIAR, peptide start residue: 225)	-0.198
UniProt Q9WUB4 (peptide sequence: MGDNNVIESK, peptide start residue: 101)	-0.401
UniProt Q9WU00 (peptide sequence: VFGAAPLENVVR, peptide start residue: 146)	0.424
UniProt Q9R1S8 (peptide sequence: FAYPMPFCDR, peptide start residue: 235)	-0.616

An excerpt of these results, as a markdown table.

| Target | log2 fold change |
| --- | --- |
| UniProt Q9R0I7 (peptide sequence: SGGLLADPPKGSFLEGPR, peptide start residue: 689) | -0.266 |
| UniProt Q9WUM5 (peptide sequence: MGHAGAIIAGGKGGAKEK, peptide start residue: 297) | 0.268 |
| UniProt Q9QXD6 (peptide sequence: STDEPSEKDALQPGR, peptide start residue: 144) | 0.32 |
| UniProt Q9QYY8 (peptide sequence: RKDPLTHASNSLPR, peptide start residue: 233) | 0.428 |
| UniProt Q9QZS3 (peptide sequence: EKECGVTATFDASR, peptide start residue: 173) | -0.158 |
| UniProt Q9WTJ8 (peptide sequence: FSAHYDAVEAELK, peptide start residue: 49) | -0.215 |
| UniProt Q9WV30 (peptide sequence: EISSPARPCSFEEAMK, peptide start residue: 557) | 0.268 |
